Laboratory results as given in patent US6500927B2 (priority 1998, dated 2002).
Results are given in words; binding and its absence hold for the method and conditions named. Some entries that bind do so weakly or less than the wild type.

Assays:
Assay in all cases: competition with ^3H-DAMGO, CHO cell membranes
[1] = target: MOR-1 (mu-opioid receptor-1, full length) (mouse) (UniProt P42866)
[2] = target: MOR-1C splice variant of the mu-opioid receptor-1 (mouse)
[3] = target: MOR-1D splice variant of the mu-opioid receptor-1 (mouse) (UniProt P42866)
[4] = target: MOR-1E splice variant of the mu-opioid receptor-1 (mouse) (UniProt P42866)

binding [1]: binds
binding [2]: binds
binding [3]: binds
binding [4]: binds
Substance: dynorphin A (from UniProt P01213 207-223) (peptide)
